Tests used:
E2F1 = target: T1, E2F1 (UniProt Q01094 1-437, limits assumed); assay: co-immunoprecipitation (data not shown)
T1 construct: Specificity control
T1 sequence (looked up): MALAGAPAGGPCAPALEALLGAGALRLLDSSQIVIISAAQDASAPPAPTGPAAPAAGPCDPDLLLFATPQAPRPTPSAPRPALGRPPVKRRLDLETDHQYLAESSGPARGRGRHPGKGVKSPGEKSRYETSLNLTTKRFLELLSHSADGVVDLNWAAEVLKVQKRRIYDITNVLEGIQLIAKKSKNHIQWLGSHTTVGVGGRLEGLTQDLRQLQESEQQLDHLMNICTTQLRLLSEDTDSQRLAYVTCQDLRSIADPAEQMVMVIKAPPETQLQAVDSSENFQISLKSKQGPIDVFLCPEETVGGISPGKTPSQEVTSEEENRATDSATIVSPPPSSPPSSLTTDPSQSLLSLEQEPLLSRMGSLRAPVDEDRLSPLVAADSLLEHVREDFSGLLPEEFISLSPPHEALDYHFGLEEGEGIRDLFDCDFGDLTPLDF

By UniProt entry, the sequences of proteins in these tests, tags left out.
UniProt P38398, whole entry: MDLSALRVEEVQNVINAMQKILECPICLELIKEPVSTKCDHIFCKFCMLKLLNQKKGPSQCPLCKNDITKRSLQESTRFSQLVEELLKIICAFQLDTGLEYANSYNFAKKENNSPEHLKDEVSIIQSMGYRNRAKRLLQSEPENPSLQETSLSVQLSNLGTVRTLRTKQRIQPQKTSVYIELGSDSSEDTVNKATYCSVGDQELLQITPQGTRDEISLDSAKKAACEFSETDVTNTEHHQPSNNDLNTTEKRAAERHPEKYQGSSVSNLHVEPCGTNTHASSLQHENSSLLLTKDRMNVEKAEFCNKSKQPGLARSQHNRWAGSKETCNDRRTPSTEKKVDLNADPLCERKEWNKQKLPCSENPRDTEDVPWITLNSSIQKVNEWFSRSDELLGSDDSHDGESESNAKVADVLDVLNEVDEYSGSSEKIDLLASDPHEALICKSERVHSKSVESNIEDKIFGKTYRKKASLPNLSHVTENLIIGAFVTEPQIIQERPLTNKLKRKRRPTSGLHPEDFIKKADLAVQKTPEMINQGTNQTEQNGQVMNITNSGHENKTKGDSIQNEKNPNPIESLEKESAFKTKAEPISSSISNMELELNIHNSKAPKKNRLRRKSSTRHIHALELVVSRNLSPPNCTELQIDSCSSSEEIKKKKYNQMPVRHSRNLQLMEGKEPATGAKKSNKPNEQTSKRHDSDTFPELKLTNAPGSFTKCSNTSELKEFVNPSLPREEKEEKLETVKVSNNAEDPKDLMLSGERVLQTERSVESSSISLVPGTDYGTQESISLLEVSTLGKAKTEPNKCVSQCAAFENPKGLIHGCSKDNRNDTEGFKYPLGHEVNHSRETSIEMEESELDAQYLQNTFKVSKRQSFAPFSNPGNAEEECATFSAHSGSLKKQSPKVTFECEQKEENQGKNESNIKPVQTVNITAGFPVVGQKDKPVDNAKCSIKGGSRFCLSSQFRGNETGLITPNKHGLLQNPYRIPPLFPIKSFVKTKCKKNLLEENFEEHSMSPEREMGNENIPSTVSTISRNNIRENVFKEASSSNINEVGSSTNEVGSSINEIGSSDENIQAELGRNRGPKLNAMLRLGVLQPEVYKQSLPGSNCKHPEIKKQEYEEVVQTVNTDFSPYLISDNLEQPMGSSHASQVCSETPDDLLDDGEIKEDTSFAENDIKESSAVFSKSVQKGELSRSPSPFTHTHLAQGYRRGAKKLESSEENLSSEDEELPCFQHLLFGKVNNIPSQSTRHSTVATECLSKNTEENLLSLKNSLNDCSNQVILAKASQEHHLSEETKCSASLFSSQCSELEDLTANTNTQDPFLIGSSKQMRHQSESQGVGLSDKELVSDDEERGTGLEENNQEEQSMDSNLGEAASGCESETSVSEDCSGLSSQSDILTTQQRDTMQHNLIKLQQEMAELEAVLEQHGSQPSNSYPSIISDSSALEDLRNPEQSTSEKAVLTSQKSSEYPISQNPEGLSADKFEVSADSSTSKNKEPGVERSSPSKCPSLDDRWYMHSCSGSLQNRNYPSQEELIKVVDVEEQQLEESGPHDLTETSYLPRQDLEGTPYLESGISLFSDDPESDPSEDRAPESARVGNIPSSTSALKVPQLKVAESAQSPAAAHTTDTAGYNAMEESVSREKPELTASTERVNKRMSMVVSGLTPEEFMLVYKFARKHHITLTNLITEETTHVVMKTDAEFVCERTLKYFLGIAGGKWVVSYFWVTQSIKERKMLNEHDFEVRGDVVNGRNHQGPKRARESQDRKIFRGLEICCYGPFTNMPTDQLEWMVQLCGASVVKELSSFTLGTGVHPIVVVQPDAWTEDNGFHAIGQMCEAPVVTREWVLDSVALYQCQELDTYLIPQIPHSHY

BRCA-1 = target: T2, BRCA-1 (UniProt P38398 1-1863, limits assumed); assay: co-immunoprecipitation (data not shown)
T2 construct: Specificity control

binding result (E2F1): no binding | binding result (BRCA-1): no binding
B1: HOXB7 (construct not stated) (other, UniProt P09629 1-217, looked up)
chain: MSSLYYANTLFSKYPASSSVFATGAFPEQTSCAFASNPQRPGYGAGSGASFAASMQGLYPGGGGMAGQSAAGVYAAGYGLEPSSFNMHCAPFEQNLSGVCPGDSAKAAGAKEQRDSDLAAESNFRIYPWMRSSGTDRKRGRQTYTRYQTLELEKEFHYNRYLTRRRRIEIAHTLCLTERQIKIWFQNRRMKWKKENKTAGPGTTGQDRAEAEEEEEE
notes: also called HOXB7 immunocomplexes

From patent US20130333059A1 (Johns Hopkins, published 2013)
